The values below come from PMC5996148.

Experiment in all cases: protein microarray (ProtoArray v5.0), streptavidin-Alexa Fluor 647
Common to all, as to settings: 3'-biotin; 20 mM Tris (pH 7.5), 5 mM MgCl2, 100 mM KCl, 0.1% Tween-20, A/T-rich and random oligonucleotide blockers; temperature not stated; high values mean tight binding

The subject of assay [1] is IL1F8 (human).
Assay [2] deals with IL1RN (human).
For assay [3], the system named is IL2 (human).
Assay [4] deals with IL20RB (human).
The subject of assay [5] is IL22 (human).
In assay [6] the test system is IL27 (human).
In assay [7] the test system is IL3 (human).
Assay [8] has as its system IL32 (human).
Assay [9] addresses T1, IL4 (UniProt P05112).
T1 sequence: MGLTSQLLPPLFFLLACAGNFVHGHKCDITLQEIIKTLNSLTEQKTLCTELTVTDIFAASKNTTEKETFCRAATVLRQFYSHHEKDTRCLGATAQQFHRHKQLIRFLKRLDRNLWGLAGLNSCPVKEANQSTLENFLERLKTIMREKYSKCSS

Assay [10] relates to IL5 (human).

Several values for one entry are separate records, joined by “and”; a condition that tells them apart may be missing. Equal entries are not always repeated. Some of the results follow. For some of these results: The source does not settle which construct or isoform was used.

For the sequence “GGGAGGCTGAGGCAGG [G4-1 biotinylated (PQS2)]”, the binding signal is -0.359 z-score in assay [1]; -0.305 z-score in [2]; -0.317 z-score in [3]; -0.301 z-score in assay [4]; -0.354 z-score in assay [5]; -0.313 z-score in [6]. The binding signal in assay [7] was -0.283 z-score; in assay [8] it was -0.323 z-score and -0.342 z-score; in assay [9], -0.322 z-score; in assay [10], -0.346 z-score.
